Some of these results come from one statement about several compounds together.
Assays:
[1] = test system: Orchid Thrips (Dichromothrips Corbetti); assay: B.7 Orchid thrips, floral immersion; format: in vivo; settings: 300 ppm; adult thrips; 72 hours after treatment
Protocol: B.7 Orchid Thrips (Dichromothrips Corbetti)
Dichromothrips corbetti adults used for bioassay were obtained from a colony maintained continuously under laboratory conditions. For testing purposes, the test compound is diluted in a 1:1 mixture of acetone:water (vol:vol), plus Kinetic HV at a rate of 0.01% v/v.
Thrips potency of each compound was evaluated by using a floral-immersion technique. All petals of individual, intact orchid flowers were dipped into treatment solution and allowed to dry in Petri dishes. Treated petals were placed into individual re-sealable plastic along with about 20 adult thrips. All test arenas were held under continuous light and a temperature of about 28° C. for duration of the assay. After 3 days, the numbers of live thrips were counted on each petal. The percent mortality was recorded 72 hours after treatment.

[2] = test system: Diamond back moth (Plutella xylostella); assay: B.1 Diamond back moth, cabbage leaf dip; format: in vivo; settings: 300 ppm, 3rd instar larvae, 72 hours after treatment
Protocol: B.1 Diamond back moth (Plutella xylostella)
The active compound was dissolved at the desired concentration in a mixture of 1:1 (vol:vol) distilled water:acetone. Surfactant (Kinetic HV) was added at a rate of 0.01% (vol/vol). The test solution was prepared at the day of use.
Leaves of cabbage were dipped in test solution and air-dried. Treated leaves were placed in petri dishes lined with moist filter paper and inoculated with ten 3rd instar larvae. Mortality was recorded 72 hours after treatment. Feeding damages were also recorded using a scale of 0-100%.

SMILES | mortality in comparison with untreated controls [1] | mortality in comparison with untreated controls [2]
O=C(N[C@@H]1CC(=O)N(OCC(F)(F)F)C1=O)c1ccc(C2=NOC(c3ccc(F)c(Cl)c3)(C(F)(F)F)C2)cc1Cl (some centres unmarked) [Compound I-1-74] | over 75% | over 75%
O=C(NC1CC(=O)N(OCC(F)(F)F)C1=O)c1ccc(C2=NOC(c3cc(Cl)cc(Cl)c3)(C(F)(F)F)C2)cc1Cl (mixture of isomers) [Compound I-1-75] | over 75% | over 75%
O=C(N[C@@H]1CC(=O)N(OCC(F)(F)F)C1=O)c1ccc(C2=NO[C@@](c3cc(Cl)c(F)c(Cl)c3)(C(F)(F)F)C2)cc1Cl [Compound I-1-76] | over 75% | over 75%
Cc1cc(C2=NOC(c3cc(Cl)cc(Cl)c3)(C(F)(F)F)C2)ccc1C(=O)NC1CC(=O)N(OCC(F)(F)F)C1=O (mixture of isomers) [Compound I-1-73] | over 75% | over 75%
